{"source": "PubChem BioAssay AID504804 (Drosophila RNAi Screening Center, 2011)", "aim": "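dsRNAs that improve Kc cell survival under doxorubicin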 (primary screen)", "cell system": "Drosophila Kc cells", "reagent": "long dsRNA against Drosophila genes, 0.5 µg dsRNA per well", "duration": "96 h (48 h knock-down, then 48 h drug)", "challenge": "doxorubicin 5 µg/ml for 48 h, added 48 h after dsRNA", "read-out": "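Viability measured as cellular ATP by luminescence after 48 h knock-down then 48 h doxorubicin at 5 µg/ml; unnormalised plate counts for each replicate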", "reading the numbers": "raw ATP luminescence: higher = more viable cells, protection from doxorubicin", "rule for the call": "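Active when both duplicate wells lie at least 2 SD above the plate mean and protection is confirmed by rescreening and independent dsRNAs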", "note": "The screen tested about 19,000 reagents; below is a random part of those with a known target gene and a result. Over the whole deposit, 47 (0.25%) are marked active. 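Signals are raw, not normalised; exact z-scores behind calls not deposited; actives needed confirmation, so some wells reaching 2 SD are inactive.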 The numbers tell different reagents against one gene apart. No sequences are given here."}
{"Gene":"Osi1","reagent":1,"raw ATP luminescence, replicate 1":78090,"raw ATP luminescence, replicate 2":67517,"Outcome":"inactive"}
{"Gene":"CG32681","reagent":1,"raw ATP luminescence, replicate 1":2.19e5,"raw ATP luminescence, replicate 2":2.22e5,"Outcome":"inactive"}
{"Gene":"GstT1","reagent":1,"raw ATP luminescence, replicate 1":43493,"raw ATP luminescence, replicate 2":68363,"Outcome":"inactive"}
{"Gene":"CG3987","reagent":1,"raw ATP luminescence, replicate 1":49447,"raw ATP luminescence, replicate 2":30223,"Outcome":"inactive"}
{"Gene":"Hex-A","reagent":1,"raw ATP luminescence, replicate 1":2.94e5,"raw ATP luminescence, replicate 2":3.00e5,"Outcome":"inactive"}
{"Gene":"CG5618","reagent":1,"raw ATP luminescence, replicate 1":25703,"raw ATP luminescence, replicate 2":28333,"Outcome":"inactive"}
{"Gene":"CG3907","reagent":1,"raw ATP luminescence, replicate 1":35583,"raw ATP luminescence, replicate 2":44933,"Outcome":"inactive"}
{"Gene":"Cpr66D","reagent":1,"raw ATP luminescence, replicate 1":62227,"raw ATP luminescence, replicate 2":74380,"Outcome":"inactive"}
{"Gene":"Cpr66D","reagent":2,"raw ATP luminescence, replicate 1":71243,"raw ATP luminescence, replicate 2":67940,"Outcome":"inactive"}
{"Gene":"Obp83a","reagent":1,"raw ATP luminescence, replicate 1":44877,"raw ATP luminescence, replicate 2":51797,"Outcome":"inactive"}
{"Gene":"CG8072","reagent":1,"raw ATP luminescence, replicate 1":63637,"raw ATP luminescence, replicate 2":55683,"Outcome":"inactive"}
{"Gene":"ACXE","reagent":1,"raw ATP luminescence, replicate 1":72123,"raw ATP luminescence, replicate 2":78127,"Outcome":"inactive"}
{"Gene":"CG7632","reagent":1,"raw ATP luminescence, replicate 1":49600,"raw ATP luminescence, replicate 2":46750,"Outcome":"inactive"}
{"Gene":"CG15286","reagent":1,"raw ATP luminescence, replicate 1":66880,"raw ATP luminescence, replicate 2":77743,"Outcome":"inactive"}
{"Gene":"pcx","reagent":1,"raw ATP luminescence, replicate 1":53760,"raw ATP luminescence, replicate 2":50440,"Outcome":"inactive"}
{"Gene":"pcx","reagent":2,"raw ATP luminescence, replicate 1":74250,"raw ATP luminescence, replicate 2":56330,"Outcome":"inactive"}
{"Gene":"pcx","reagent":3,"raw ATP luminescence, replicate 1":50370,"raw ATP luminescence, replicate 2":54380,"Outcome":"inactive"}
{"Gene":"pcx","reagent":4,"raw ATP luminescence, replicate 1":56420,"raw ATP luminescence, replicate 2":53680,"Outcome":"inactive"}
{"Gene":"pcx","reagent":5,"raw ATP luminescence, replicate 1":51700,"raw ATP luminescence, replicate 2":58260,"Outcome":"inactive"}
{"Gene":"CG2747","reagent":1,"raw ATP luminescence, replicate 1":53067,"raw ATP luminescence, replicate 2":56557,"Outcome":"inactive"}
{"Gene":"Mp","reagent":1,"raw ATP luminescence, replicate 1":50117,"raw ATP luminescence, replicate 2":42630,"Outcome":"inactive"}
{"Gene":"Mp","reagent":2,"raw ATP luminescence, replicate 1":75843,"raw ATP luminescence, replicate 2":94600,"Outcome":"inactive"}
{"Gene":"Mp","reagent":3,"raw ATP luminescence, replicate 1":81410,"raw ATP luminescence, replicate 2":90823,"Outcome":"inactive"}
{"Gene":"pths","reagent":1,"raw ATP luminescence, replicate 1":47807,"raw ATP luminescence, replicate 2":45180,"Outcome":"inactive"}
{"Gene":"CG32579","reagent":1,"raw ATP luminescence, replicate 1":3.36e5,"raw ATP luminescence, replicate 2":2.50e5,"Outcome":"inactive"}
{"Gene":"Reg-2","reagent":1,"raw ATP luminescence, replicate 1":66683,"raw ATP luminescence, replicate 2":63627,"Outcome":"inactive"}
{"Gene":"Sbds","reagent":1,"raw ATP luminescence, replicate 1":43733,"raw ATP luminescence, replicate 2":39847,"Outcome":"inactive"}
{"Gene":"Pos","reagent":1,"raw ATP luminescence, replicate 1":42490,"raw ATP luminescence, replicate 2":51890,"Outcome":"inactive"}

In a second layout: 2 of the entries above.
| Gene | reagent | raw ATP luminescence, replicate 1 | raw ATP luminescence, replicate 2 | Outcome |
| --- | --- | --- | --- | --- |
| CG3987 | 1 | 49447 | 30223 | inactive |
| Hex-A | 1 | 2.94e5 | 3.00e5 | inactive |
